Earlier results, collected in patent publication US20210392935A1, “PREPARATION COMPRISING A PROBIOTIC STRAIN OF THE GENUS BACILLUS MEGATERIUM AND A POLYUNSATURATED FATTY ACID COMPONENT” (Evonik Operations GmbH, priority 2018, published 2021).

Details: human breast milk [42]; cited from earlier work

| SMILES | content in human breast milk [pg/mL] |
| --- | --- |
| CC[C@@H](O)/C=C/C=C\C[C@@H](O)/C=C/C=C/C=C\[C@@H](O)CCCC(=O)O [RvE1, resolvin E1] | ~6.000 |
| CC/C=C\C[C@H](O)/C=C/C=C\C=C\C=C\[C@@H](O)[C@@H](O)C/C=C\CCC(=O)O [RvD1, resolvin D1] | ~10.000 |
